# Assay results as given in the supplement of paper PMC7666118.
# The chains behind the UniProt entries cited, without tags or fusion partners. Where a name states a change or a piece, a line headed by the entry shows the natural chain unless it says otherwise.
# UniProt Q8IXU6: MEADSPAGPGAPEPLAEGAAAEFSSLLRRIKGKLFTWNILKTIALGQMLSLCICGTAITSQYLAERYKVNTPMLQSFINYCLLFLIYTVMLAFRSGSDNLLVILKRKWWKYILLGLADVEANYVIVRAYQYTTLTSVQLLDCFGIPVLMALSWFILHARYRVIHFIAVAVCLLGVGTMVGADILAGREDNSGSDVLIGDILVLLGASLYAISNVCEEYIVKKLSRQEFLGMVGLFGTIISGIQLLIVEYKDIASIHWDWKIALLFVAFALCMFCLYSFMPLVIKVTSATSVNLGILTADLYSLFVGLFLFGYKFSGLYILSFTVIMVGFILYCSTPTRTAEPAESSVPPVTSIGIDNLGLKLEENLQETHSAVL
# UniProt O95721: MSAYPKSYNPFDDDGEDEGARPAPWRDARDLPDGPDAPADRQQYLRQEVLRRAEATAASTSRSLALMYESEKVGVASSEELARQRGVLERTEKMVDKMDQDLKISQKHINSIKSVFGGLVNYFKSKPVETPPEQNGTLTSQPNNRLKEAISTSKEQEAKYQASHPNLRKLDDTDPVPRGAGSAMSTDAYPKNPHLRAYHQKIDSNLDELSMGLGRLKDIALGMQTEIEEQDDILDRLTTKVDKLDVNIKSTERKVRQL
# UniProt Q9C0K1: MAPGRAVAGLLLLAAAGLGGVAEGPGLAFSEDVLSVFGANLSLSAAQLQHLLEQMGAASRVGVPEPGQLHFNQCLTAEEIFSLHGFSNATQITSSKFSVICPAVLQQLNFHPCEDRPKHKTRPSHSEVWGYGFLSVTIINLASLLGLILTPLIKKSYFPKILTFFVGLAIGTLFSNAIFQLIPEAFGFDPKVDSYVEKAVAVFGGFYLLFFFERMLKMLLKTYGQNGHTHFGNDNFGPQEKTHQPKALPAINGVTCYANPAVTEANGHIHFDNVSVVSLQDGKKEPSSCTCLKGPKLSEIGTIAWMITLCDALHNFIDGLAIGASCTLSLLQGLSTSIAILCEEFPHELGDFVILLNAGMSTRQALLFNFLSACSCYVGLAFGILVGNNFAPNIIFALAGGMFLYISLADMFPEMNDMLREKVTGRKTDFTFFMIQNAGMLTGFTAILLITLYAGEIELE
# UniProt Q8NEW0: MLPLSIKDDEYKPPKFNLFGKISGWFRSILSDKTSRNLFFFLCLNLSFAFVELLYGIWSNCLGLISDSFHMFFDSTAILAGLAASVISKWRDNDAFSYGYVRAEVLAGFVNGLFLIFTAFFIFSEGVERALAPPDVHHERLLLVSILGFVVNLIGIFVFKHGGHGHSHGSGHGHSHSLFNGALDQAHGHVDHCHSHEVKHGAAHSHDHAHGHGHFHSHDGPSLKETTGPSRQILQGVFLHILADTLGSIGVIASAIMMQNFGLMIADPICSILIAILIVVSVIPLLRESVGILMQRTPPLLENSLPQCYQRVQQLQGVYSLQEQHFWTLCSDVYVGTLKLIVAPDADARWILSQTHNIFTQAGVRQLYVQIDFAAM
# UniProt P01008, whole entry: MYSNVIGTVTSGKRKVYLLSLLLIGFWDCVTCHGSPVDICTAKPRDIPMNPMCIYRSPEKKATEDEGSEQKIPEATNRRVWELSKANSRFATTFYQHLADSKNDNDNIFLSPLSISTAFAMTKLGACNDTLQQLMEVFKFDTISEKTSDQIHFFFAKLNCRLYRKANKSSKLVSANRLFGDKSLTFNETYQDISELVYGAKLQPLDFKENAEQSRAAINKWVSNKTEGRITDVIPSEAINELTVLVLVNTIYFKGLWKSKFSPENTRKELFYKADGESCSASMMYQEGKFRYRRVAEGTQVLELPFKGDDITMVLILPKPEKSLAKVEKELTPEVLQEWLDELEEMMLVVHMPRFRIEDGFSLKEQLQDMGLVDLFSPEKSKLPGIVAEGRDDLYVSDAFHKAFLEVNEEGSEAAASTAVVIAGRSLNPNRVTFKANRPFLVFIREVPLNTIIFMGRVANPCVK
# UniProt Q13247: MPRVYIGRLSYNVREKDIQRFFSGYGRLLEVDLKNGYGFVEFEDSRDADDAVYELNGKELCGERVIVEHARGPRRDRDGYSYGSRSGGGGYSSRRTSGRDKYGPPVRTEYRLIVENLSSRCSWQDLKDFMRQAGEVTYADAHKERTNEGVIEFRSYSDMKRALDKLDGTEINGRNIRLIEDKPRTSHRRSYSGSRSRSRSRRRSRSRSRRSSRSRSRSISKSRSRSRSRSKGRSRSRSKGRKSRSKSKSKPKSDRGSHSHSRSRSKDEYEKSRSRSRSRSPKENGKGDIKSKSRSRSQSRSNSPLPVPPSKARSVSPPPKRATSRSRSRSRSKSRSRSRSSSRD
# UniProt Q9NRA2: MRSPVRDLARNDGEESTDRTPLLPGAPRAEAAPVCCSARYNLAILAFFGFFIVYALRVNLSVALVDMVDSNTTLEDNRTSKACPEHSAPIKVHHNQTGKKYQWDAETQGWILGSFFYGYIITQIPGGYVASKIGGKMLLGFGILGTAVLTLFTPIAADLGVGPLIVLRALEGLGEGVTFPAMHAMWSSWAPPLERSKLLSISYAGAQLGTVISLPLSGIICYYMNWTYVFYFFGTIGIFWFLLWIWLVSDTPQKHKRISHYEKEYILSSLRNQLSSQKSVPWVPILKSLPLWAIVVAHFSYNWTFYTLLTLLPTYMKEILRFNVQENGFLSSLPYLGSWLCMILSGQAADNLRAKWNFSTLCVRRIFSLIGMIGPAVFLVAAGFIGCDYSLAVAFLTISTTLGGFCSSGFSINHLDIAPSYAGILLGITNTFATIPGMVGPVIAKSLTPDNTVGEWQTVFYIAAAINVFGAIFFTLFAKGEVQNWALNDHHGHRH
# UniProt Q9UMY4: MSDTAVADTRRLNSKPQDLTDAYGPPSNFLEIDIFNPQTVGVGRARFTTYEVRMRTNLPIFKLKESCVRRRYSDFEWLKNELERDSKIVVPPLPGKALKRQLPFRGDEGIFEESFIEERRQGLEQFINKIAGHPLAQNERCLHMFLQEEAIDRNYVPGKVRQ
# UniProt Q9BS91: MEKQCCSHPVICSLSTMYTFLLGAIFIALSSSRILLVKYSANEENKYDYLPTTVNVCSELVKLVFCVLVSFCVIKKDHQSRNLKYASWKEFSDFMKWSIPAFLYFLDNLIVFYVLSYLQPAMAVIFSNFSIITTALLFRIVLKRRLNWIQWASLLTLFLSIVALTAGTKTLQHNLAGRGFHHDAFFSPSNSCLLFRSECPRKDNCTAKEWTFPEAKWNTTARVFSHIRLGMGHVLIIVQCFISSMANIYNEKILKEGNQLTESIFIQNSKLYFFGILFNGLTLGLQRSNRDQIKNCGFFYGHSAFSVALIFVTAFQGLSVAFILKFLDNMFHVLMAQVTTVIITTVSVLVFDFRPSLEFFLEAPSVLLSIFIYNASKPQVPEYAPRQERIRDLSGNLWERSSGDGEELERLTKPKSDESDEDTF
# UniProt Q8NEM2: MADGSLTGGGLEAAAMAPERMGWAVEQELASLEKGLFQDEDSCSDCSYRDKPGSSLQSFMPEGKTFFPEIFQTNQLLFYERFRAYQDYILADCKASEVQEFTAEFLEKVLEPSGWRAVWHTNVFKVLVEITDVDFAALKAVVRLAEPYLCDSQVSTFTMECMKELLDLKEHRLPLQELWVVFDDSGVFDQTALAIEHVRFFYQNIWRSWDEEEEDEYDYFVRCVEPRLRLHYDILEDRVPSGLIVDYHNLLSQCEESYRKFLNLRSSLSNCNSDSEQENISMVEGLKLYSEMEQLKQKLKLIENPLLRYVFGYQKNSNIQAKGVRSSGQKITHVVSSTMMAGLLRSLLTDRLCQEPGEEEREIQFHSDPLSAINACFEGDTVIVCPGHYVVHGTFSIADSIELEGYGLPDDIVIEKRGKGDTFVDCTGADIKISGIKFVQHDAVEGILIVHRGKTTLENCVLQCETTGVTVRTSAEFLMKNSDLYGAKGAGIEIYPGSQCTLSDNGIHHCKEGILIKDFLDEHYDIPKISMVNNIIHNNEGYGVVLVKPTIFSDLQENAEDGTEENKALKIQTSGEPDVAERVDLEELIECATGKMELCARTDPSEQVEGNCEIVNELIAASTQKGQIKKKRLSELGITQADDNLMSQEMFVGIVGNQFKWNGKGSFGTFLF
# UniProt O95258: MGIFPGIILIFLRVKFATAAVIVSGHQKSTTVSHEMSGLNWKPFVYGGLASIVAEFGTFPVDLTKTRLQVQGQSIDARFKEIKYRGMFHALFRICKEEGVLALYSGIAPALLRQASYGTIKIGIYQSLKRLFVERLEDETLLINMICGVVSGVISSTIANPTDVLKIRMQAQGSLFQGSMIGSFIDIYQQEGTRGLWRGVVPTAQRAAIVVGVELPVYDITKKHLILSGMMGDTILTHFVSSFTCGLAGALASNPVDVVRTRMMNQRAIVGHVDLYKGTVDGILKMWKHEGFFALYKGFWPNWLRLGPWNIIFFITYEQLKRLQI
# UniProt Q9NTJ3, whole entry: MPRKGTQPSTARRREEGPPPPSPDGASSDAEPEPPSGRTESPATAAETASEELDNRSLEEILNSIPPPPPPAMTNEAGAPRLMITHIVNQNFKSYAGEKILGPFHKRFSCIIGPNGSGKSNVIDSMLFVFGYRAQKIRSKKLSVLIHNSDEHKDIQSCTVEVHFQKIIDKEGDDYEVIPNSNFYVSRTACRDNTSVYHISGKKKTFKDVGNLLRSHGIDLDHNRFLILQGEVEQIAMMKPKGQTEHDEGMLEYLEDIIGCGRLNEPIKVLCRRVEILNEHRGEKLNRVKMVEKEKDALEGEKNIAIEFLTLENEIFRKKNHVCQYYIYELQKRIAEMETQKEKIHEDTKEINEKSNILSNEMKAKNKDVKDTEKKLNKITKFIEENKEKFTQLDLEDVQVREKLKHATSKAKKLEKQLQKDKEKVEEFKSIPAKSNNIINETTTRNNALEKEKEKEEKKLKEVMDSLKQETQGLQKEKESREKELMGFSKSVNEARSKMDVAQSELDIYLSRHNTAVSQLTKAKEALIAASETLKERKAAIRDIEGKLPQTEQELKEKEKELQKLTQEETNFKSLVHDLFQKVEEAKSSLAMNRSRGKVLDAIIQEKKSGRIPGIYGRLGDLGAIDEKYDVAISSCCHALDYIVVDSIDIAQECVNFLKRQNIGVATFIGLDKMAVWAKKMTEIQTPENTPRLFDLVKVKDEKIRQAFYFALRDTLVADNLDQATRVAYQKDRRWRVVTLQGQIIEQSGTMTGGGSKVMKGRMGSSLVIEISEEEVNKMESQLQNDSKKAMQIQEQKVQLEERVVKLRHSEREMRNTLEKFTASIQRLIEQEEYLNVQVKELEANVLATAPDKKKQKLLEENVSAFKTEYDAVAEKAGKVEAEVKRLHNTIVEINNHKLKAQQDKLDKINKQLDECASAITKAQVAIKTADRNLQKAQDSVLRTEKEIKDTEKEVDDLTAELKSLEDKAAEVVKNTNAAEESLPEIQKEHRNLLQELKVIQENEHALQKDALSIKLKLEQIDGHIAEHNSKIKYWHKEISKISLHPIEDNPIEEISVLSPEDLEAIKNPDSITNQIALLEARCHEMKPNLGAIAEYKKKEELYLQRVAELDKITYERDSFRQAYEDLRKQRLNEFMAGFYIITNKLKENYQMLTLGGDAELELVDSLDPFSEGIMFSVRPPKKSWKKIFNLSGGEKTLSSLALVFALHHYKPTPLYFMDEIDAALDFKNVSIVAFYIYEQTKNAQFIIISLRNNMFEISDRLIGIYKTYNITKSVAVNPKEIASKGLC
# UniProt Q6NUK1: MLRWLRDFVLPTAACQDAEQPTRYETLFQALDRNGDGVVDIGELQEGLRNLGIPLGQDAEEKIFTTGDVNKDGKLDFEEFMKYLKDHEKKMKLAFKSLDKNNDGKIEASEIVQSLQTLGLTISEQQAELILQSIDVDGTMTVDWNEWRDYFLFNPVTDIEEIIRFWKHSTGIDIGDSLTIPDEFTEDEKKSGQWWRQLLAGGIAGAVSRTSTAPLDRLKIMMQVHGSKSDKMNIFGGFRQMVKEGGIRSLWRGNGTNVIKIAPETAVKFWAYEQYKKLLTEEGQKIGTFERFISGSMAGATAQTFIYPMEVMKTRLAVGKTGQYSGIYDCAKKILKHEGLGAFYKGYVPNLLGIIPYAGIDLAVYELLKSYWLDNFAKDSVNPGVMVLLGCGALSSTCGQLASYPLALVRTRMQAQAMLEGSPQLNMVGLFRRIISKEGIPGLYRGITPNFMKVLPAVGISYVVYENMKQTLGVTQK
# UniProt Q70HW3: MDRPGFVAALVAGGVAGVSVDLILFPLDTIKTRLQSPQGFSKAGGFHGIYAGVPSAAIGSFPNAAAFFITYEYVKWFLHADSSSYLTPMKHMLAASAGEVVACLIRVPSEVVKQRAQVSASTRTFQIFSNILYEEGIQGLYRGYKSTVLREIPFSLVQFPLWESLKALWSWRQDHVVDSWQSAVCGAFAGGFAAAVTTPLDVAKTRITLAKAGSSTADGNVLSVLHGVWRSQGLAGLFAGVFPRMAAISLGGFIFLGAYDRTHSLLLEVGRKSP
# The list shows a part of the results.
# Compound: COc1ccc(Cn2ccc3cc(C)c(C(=O)NO)cc32)cc1
# Experiment: dose-dependent thermal stabilisation call (2D-TPP, DLPTP, 10% FDR) (binary (1 = stabilised)); higher = stabilised by the compound
# Details: system: HL-60 intact cells; concentration range 0.04-10 µM
# Experimental: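 2D thermal proteome profiling in intact HL-60 cells treated with BRD-3811 (0, 0.04, 0.29, 2, 10 uM) for 90 min at 37 C, then heated 3 min at one of 12 temperatures (42-63.9 C). Soluble protein was quantified by TMT10 MS. The value is the DLPTP call of the paper: dose-dependent thermal stabilisation over all temperatures at 10% FDR (F-test of a dose-response against a flat model); one experiment, one call per tested protein.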
row,Target,dose-dependent thermal stabilisation call
1,SLC39A10 (UniProt Q9ULF5),inactive: 0
2,SLC35F2 (UniProt Q8IXU6),inactive: 0
3,SNX2 (UniProt O60749),inactive: 0
4,SLC7A6OS (UniProt Q96CW6),inactive: 0
5,SFRS2 (UniProt Q01130),inactive: 0
6,SMCR7L (UniProt Q9NQG6),inactive: 0
7,SNTB1 (UniProt Q13884),inactive: 0
8,SNF8 (UniProt Q96H20),inactive: 0
9,SNAP29 (UniProt O95721),inactive: 0
10,SNRNP200 (UniProt O75643),inactive: 0
11,SLC25A30 (UniProt Q5SVS4),inactive: 0
12,SLC39A8 (UniProt Q9C0K1),inactive: 0
13,SLC30A7 (UniProt Q8NEW0),inactive: 0
14,SERPINC1 (UniProt P01008),inactive: 0
15,SF3A2 (UniProt Q15428),inactive: 0
16,SLC19A2 (UniProt O60779),inactive: 0
17,SFRS6 (UniProt Q13247),inactive: 0
18,SLC17A5 (UniProt Q9NRA2),inactive: 0

row,Target,dose-dependent thermal stabilisation call
1,SNX12 (UniProt Q9UMY4),inactive: 0
2,SLC35A5 (UniProt Q9BS91),inactive: 0
3,SHCBP1 (UniProt Q8NEM2),inactive: 0
4,SLC25A14 (UniProt O95258),inactive: 0
5,SMU1 (UniProt Q2TAY7),inactive: 0
6,SMAD1 (UniProt Q15797),inactive: 0
7,SFRS18 (UniProt Q8TF01),inactive: 0
8,SFXN1 (UniProt Q9H9B4),inactive: 0
9,SMPD2 (UniProt O60906),inactive: 0
10,SLC7A5 (UniProt Q01650),inactive: 0
11,SMARCA4 (UniProt P51532),inactive: 0
12,SERPINB1 (UniProt P30740),inactive: 0
13,SMC4 (UniProt Q9NTJ3),inactive: 0
14,SLC25A24 (UniProt Q6NUK1),inactive: 0
15,SFPQ (UniProt P23246),inactive: 0
16,SERPINB8 (UniProt P50452),inactive: 0
17,SLC25A26 (UniProt Q70HW3),inactive: 0
18,SETX (UniProt Q7Z333),inactive: 0

# A different layout for some results above:
row | Target | dose-dependent thermal stabilisation call
7 | SFRS18 (UniProt Q8TF01) | inactive: 0
8 | SFXN1 (UniProt Q9H9B4) | inactive: 0
